The record followed here is doi:10.1101/2020.06.26.173740.

These are yes or no findings as the source states them, for the method shown.

The assay addresses R149C mutant form of E. coli MelB (melibiose permease) (E. coli) (UniProt P02921). Kind of assay: SEC.

With “R149C mutant form of E. coli MelB (melibiose permease) (from UniProt P02921 1-473)”, the binding entry is reported as “no binding (tested: applied at ∼5 mg/ml)”.
